Laboratory results published in PubChem BioAssay AID1794845 (National Center for Advancing Translational Sciences (NCATS), 2023).
Out of some 6,900 compounds screened, fewer than 10 were called active. Calls follow the shape of the dose curve; as a rule, active = well fitted curve in the direction sought with a large enough effect; inconclusive = small, poorly fitted or top-dose-only effect, or another doubt; inactive = no such curve, though single readings can be large or run the other way. Some of the results follow.

The chains behind the UniProt entries cited, without tags or fusion partners. Where a name states a change or a piece, a line headed by the entry shows the natural chain unless it says otherwise.
UniProt C7C422: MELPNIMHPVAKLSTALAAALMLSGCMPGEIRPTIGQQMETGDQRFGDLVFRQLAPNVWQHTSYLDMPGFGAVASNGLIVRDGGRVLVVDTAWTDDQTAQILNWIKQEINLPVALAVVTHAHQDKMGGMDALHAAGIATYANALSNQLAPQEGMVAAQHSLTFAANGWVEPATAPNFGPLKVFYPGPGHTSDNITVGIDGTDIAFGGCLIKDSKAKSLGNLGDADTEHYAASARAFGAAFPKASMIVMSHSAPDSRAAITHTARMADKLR

Molecular target: Metallo-beta-lactamase type 2 (Klebsiella pneumoniae) (UniProt C7C422)
Test: qHTS to identify inhibitors of the New Delhi Metallo-beta-lactamase (NDM): primary screen against the NCATS Gemini Collection; also: % of control where 0% means no effect
Conditions: NDM-1 enzyme, meropenem hydrolysis, absorbance 300 nm; at 38.4 µM (top of the series) unless noted
In short: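 Meropenem hydrolysis (50 uM final) by 2 nM NDM-1 read as 300 nm absorbance after 30 min, following >30 min compound–enzyme preincubation in HEPES pH 7.0 with 1 uM ZnSO4 and 0.01% Tween20.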

Row | Compound | activity % (negative = inhibition)
1 | O=C1CCC2(CCCN(C(=O)c3ccc(=O)[nH]c3)C2)CN1CCc1cnc[nH]1 (centres undefined) | inactive: 4.3%
2 | Cc1noc(C)c1S(=O)(=O)N1CCC[C@H]1C(=O)N1CCCCCCNC(=O)CC1 | inactive: 32.3%
3 | CCOCCCNC(=O)N1CCC2(CC1)CC(N(Cc1ccc(F)cc1)C1CC1)CCO2 (centres undefined) | inactive: -0.207%
4 | CNC(=O)N1CCC(C2CCN(C(=O)Cn3cccn3)C2)CC1 (centres undefined) | inactive: -0.322%
5 | CCn1ccc(C(=O)N2CC(c3nc(CCOCC4CC4)no3)C2)n1 | inactive: -0.382%
6 | O=C(N1CCCCC1)N1CCN(c2cc(Cl)ncn2)C(=O)C1 | inactive: 2.24%
7 | O=C(NCc1ccc(F)c(F)c1)C1CN(C2CCCC2)C(=O)N1 (centres undefined) | inactive: 7.46% [at 57.5 µM]
8 | COCCOc1cc(-c2noc([C@@H]3CCCN3C3CCN(C(C)=O)CC3)n2)ccn1 | inactive: 2.93% [at 57.5 µM]
9 | COCC(=O)N[C@H]1C[C@@H](CO)N(Cc2scnc2C)C1 | inactive: 1.25%
10 | O=C(c1cc(-c2cccnc2)c2nncn2n1)N1CCOCC1 | inactive: 9.61%
11 | CC(C)n1cc(-c2cc(C(=O)N(C)Cc3cccnc3)c3cc(F)ccc3n2)cn1 | inactive: -0.153%
12 | O=C(O)CO[C@@H]1COCC[C@H]1NC(=O)c1cc2c(s1)CCCCC2 | inactive: 16.1%
13 | COCc1nc(CCNC(=O)NCCc2ccccc2)no1 | inactive: -3.25%
14 | O=C(c1ccon1)N1CCN(Cc2cnn3cccnc23)CC(O)C1 (centres undefined) | inactive: 1.39%
15 | COCCOCc1nc(C2CCCN2S(=O)(=O)Cc2ccccc2)no1 (centres undefined) | inactive: -3.89%
16 | CCCC1(CO)CCCN(Cc2nnc(-c3cccc(F)c3)o2)C1 (centres undefined) | inactive: 6.36%
17 | Cn1c(C(=O)NCCN2CCCCC2)cc2c1CCN(Cc1cccc(F)c1)C2 | inactive: 0.485%
18 | Cc1ccccc1C(=O)N1C(C(=O)NCc2ccccc2)COC12CCN(C(=O)c1ccco1)CC2 (centres undefined) | inactive: 0.886%
19 | COCc1nc(CCNC(=O)NC2CCCCC2)no1 | inactive: 0.875%
20 | COc1ccc(NC(=O)N2CCCC(CN3CCC(C)CC3)CC2)cc1 (centres undefined) | inactive: 0.0571%
21 | COc1ccc(-c2nc(N3CCOCC3)cc3c2CN(Cc2ccccc2)C3=O)cn1 | inactive: 2.36% [at 57.5 µM]
22 | COc1ccc(CNc2cc3c(cn2)CN(Cc2ccccc2)CCN3)cc1OC | inactive: 2.49% [at 57.5 µM]

A second format for some results above.
Row	Compound	activity % (negative = inhibition)
1	O=C1CCC2(CCCN(C(=O)c3ccc(=O)[nH]c3)C2)CN1CCc1cnc[nH]1 (centres undefined)	inactive: 4.3%
2	Cc1noc(C)c1S(=O)(=O)N1CCC[C@H]1C(=O)N1CCCCCCNC(=O)CC1	inactive: 32.3%
3	CCOCCCNC(=O)N1CCC2(CC1)CC(N(Cc1ccc(F)cc1)C1CC1)CCO2 (centres undefined)	inactive: -0.207%
4	CNC(=O)N1CCC(C2CCN(C(=O)Cn3cccn3)C2)CC1 (centres undefined)	inactive: -0.322%
5	CCn1ccc(C(=O)N2CC(c3nc(CCOCC4CC4)no3)C2)n1	inactive: -0.382%
6	O=C(N1CCCCC1)N1CCN(c2cc(Cl)ncn2)C(=O)C1	inactive: 2.24%
7	O=C(NCc1ccc(F)c(F)c1)C1CN(C2CCCC2)C(=O)N1 (centres undefined)	inactive: 7.46% [at 57.5 µM]
9	COCC(=O)N[C@H]1C[C@@H](CO)N(Cc2scnc2C)C1	inactive: 1.25%
11	CC(C)n1cc(-c2cc(C(=O)N(C)Cc3cccnc3)c3cc(F)ccc3n2)cn1	inactive: -0.153%
12	O=C(O)CO[C@@H]1COCC[C@H]1NC(=O)c1cc2c(s1)CCCCC2	inactive: 16.1%
18	Cc1ccccc1C(=O)N1C(C(=O)NCc2ccccc2)COC12CCN(C(=O)c1ccco1)CC2 (centres undefined)	inactive: 0.886%
20	COc1ccc(NC(=O)N2CCCC(CN3CCC(C)CC3)CC2)cc1 (centres undefined)	inactive: 0.0571%
22	COc1ccc(CNc2cc3c(cn2)CN(Cc2ccccc2)CCN3)cc1OC	inactive: 2.49% [at 57.5 µM]

Remaining list, next part:

Row | Compound | activity % (negative = inhibition)
23 | O=C(c1ccncc1)N1CC2CCC(C1)N2Cc1ccc(-c2cccs2)cc1 | inactive: 6.08%
24 | Cc1ccc(CS(=O)(=O)NC2CCc3n[nH]c(=O)n3CC2)cc1C (centres undefined) | inactive: 0.0609%
25 | COc1ccc(CCc2nc(-c3nnn4c3COC(c3ccc(Cl)cc3)C4)no2)cc1 (centres undefined) | inactive: 2%
26 | O=C(c1ccccc1)N1CCC(Oc2cccc(F)c2)(C(=O)O)CC1 | inactive: 16.9%
27 | COCCN[C@H]1[C@@H]2OC[C@@H](O2)[C@@H](NC(=O)Nc2ccc(OC)cc2)[C@@H]1O | inactive: 18.9% [at 57.5 µM]
28 | O=C(CCn1ccn2nc3c(c2c1=O)CCCC3)Nc1ccc(F)cc1F | inactive: 5.61%
29 | CCN1CCC(CC(=O)N2CCC(C3CCN(C(=O)NC)CC3)C2)CC1 (centres undefined) | inactive: 26.7%
30 | CNc1ccc(C)cc1C(=O)N1CCN(C)C2(CCN(C)CC2)C1 | inactive: 2.68%
31 | CN(C)C(=O)c1n[nH]c2c1CN(C(=O)c1ccccc1Br)CC2 | inactive: 13.8%
32 | C#CCN(Cc1ccco1)Cc1cnc(S(C)(=O)=O)n1CCCc1ccccc1 | inactive: 11.4%
33 | O=c1[nH]c(C2CCCN(Cc3cccc(Cl)c3)C2)nc2ccc(F)cc12 (centres undefined) | inactive: -0.201%
34 | COc1cccc(-c2ccc(CN3CCCC(NC(=O)c4ccc(Cl)cc4)C3)cc2)c1 (centres undefined) | inactive: 1.24%
35 | COCC(=O)N1CC(C(=O)NCCc2ccc(OC)cc2)CC(c2ccc(F)c(C)c2)C1 (centres undefined) | inactive: 46.5%
36 | CN1CCN(Cc2ncc[nH]2)CC12CCC(=O)N(CC(=O)O)CC2 (centres undefined) | inactive: 0.956%
37 | O=C(CCc1nc2ccccc2s1)NC1CCc2n[nH]c(=O)n2CC1 (centres undefined) | inactive: -0.309%
38 | CCN1CCC2(CCC1=O)CN(c1ncnc3c1CCC3)CCN2C (centres undefined) | inactive: 0.0459%
39 | CN(C)c1nccnc1OC1CCN(S(=O)(=O)c2ccccc2)C1 (centres undefined) | inactive: 22.2%
40 | CN1C(=O)C(c2ccccc2)CC12CCN(c1ccnc(N)n1)CC2 (centres undefined) | inactive: 0.39%
41 | C[S+](=O)([O-])N1CC2(Cc3ccccc3N(C(=O)Cc3ccc(F)cc3)C2)C1 | inactive: 11.3%
42 | CCC(C)NC(=O)c1cccc(-c2ccc(OC)nn2)c1 (centres undefined) | inactive: 2.77% [at 57.5 µM]
43 | COc1cccc(CNC(=O)N[C@@H]2CN(c3ncccn3)C[C@H]2CN(C)C)c1 | inactive: 0.336%
44 | Cc1nn(C)c(C)c1S(=O)(=O)N1CCC(c2noc(-c3ccccc3)n2)C1 (centres undefined) | inactive: -4.82%
